In assay [1] the target is T1, recombinant human NME7AB (human, UniProt Q9Y5B8 92-376).
T1 construct: also called NME-AB; NME7 (in several passages)
T1 sequence: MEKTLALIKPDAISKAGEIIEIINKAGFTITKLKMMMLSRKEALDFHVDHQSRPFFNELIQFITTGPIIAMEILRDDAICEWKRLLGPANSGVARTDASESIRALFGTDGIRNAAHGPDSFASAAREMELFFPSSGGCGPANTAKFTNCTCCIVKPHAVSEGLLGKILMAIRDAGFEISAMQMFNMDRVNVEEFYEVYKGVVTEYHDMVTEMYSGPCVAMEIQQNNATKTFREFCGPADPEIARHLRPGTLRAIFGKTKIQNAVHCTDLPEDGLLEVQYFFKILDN
Briefly: selection of the monoclonal antibodies; assay not named here.

The target in assay [2] is T1, recombinant human NME7AB. The experiment in a line: ELISA, plate coated with recombinant NME7AB (FIG. 24). As to the method: The surface of the multi-well plate was coated with a recombinant $NME7AB$. Anti-$NME7AB$ antibodies were separately added to wells. Standard washes were performed and visualized by adding an HRP-conjugated secondary antibody. […] 7 of the 10 new anti-NME7 antibodies bound strongly to NME7$AB$. […] The surface of the multi-well plate was coated with a recombinant NME1-S120G dimers, which are also known to bind to the MUC1* extra cellular domain. Anti-NME7$AB$ antibodies were separately added to wells. Standard washes were performed and visualized by adding an HRP-conjugated secondary antibody.

These are yes or no findings as the source states them, for the method shown. Some binding calls cover weakened binding; strength is not graded here.

B1: anti-NME7 monoclonal antibody 5F3A5D4 (antibody, V domains shown)
VH: VQLQQSGPDLVKPGTSVKISCKTSGNTFTEYTMHWVKQSHGKSLEWIGGFNPNNGVTNYNQKFKGKATLTVDKSSSTAYMELRSLTSEDSAVYYCARRYYHSTYVFYFDSWGQGTTLTVSS
VL: DIQMTQTTSSLSASLGDRVTISCSASQGISNYLNWFQQKPDGTIKLLIYYTSSLHSGVPSRFSGSGSGTDYSLTISNVEPEDIATYYCQQYSKLPYTFGGGTKLEIKR
As to B1, the binding entry with recombinant human NME7AB [1] and with recombinant human NME7AB [2] was “binds” each time.

The values are drawn from patent US12415868 (MINERVA BIOTECHNOLOGIES, dated 2025).
